Results: publication doi:10.1101/2021.01.04.425237
Like-named read-outs stand apart in the source and are kept apart here. No constants are given. Whether binding was seen depends on the method and setting. Some results given as binding are weak or reduced against the parent protein; the word gives no strength.

Legend:
Assay in all cases: two-hybrid
[1] = target: HolC (χ subunit of DNA polymerase III holoenzyme) of Escherichia coli (Escherichia coli) (UniProt P28905)
[2] = target: T1, YoaA (wild type), DinG-family helicase of Escherichia coli (Escherichia coli) (UniProt P76257)
T1 sequence: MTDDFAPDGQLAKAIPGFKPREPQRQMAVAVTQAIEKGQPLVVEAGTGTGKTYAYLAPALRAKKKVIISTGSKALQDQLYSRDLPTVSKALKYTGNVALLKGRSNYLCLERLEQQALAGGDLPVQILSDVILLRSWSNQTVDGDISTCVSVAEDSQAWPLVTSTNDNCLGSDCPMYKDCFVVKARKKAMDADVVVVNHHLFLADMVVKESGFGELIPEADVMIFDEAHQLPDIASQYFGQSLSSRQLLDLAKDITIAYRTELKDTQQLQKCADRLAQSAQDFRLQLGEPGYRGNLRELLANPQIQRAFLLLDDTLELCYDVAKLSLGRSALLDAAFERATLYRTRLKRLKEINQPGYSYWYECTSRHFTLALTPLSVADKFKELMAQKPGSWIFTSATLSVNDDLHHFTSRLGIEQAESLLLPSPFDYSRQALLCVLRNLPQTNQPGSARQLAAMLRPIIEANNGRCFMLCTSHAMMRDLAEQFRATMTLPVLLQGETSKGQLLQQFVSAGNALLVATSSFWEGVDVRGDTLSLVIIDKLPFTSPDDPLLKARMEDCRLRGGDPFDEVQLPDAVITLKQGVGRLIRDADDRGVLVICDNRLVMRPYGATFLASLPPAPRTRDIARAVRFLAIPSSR

[3] = target: YoaA R619A (Escherichia coli) (UniProt P76257)
[4] = target: YoaA T620A (Escherichia coli) (UniProt P76257)
[5] = target: YoaAΔ619-636 C terminal truncation (Escherichia coli) (UniProt P76257)
[6] = target: HolC (χ subunit of DNA polymerase III holoenzyme) of Escherichia coli (Escherichia coli) (UniProt P28905); remark: listed apart in the source

YoaA T620A (from UniProt P76257 1-636) (enzyme)
binding [1]: no binding

HolC (χ subunit of DNA polymerase III holoenzyme) of Escherichia coli (from UniProt P28905 1-147)
binding [2]: binds
binding [3]: no binding
binding [4]: no binding
binding [5]: no binding

YoaA R619A (from UniProt P76257 1-636) (enzyme)
binding [1]: no binding

YoaAΔ619-636 C terminal truncation (from UniProt P76257 1-618) (domain or fragment)
binding [1]: no binding

B1: YoaA (wild type), DinG-family helicase of Escherichia coli (enzyme, UniProt P76257 1-636)
chain: T1 sequence
binding [6]: binds
